Laboratory results: publication PMC7468206, “Molecular Deceleration Regulates Toxicant Release to Prevent Cell Damage in Pseudomonas putida S16 (DSM 28022)” (mBio, 2020)
These are yes or no findings as the source states them, for the method shown.

Target: NicA2 residues 21 to 482 [NicA2(21–482)] (Pseudomonas putida S16 (DSM 28022)) (UniProt F8G0P2)
Experiment: SEC; Superdex 200 gel filtration; buffer 25 mM Tris-HCl (pH 8.0), 150 mM NaCl, 5 mM DTT; elution compared with molecular weight markers; both purified

- binding: no binding
B1: NicA2 residues 21 to 482 [NicA2(21–482)] (enzyme, UniProt F8G0P2 21-482)
chain: AVVTAGVAGLGAIDAASATQKTNRASTVKGGFDYDVVVVGGGFAGATAARECGLQGYRTLLLEARSRLGGRTFTSRFAGQEIEFGGAWVHWLQPHVWAEMQRYGLGVVEDPLTNLDKTLIMYNDGSVESISPDEFGKNIRIAFEKLCHDAWEVFPRPHEPMFTERARELDKSSVLDRIKTLGLSRLQQAQINSYMALYAGETTDKFGLPGVLKLFACGGWNYDAFMDTETHYRIQGGTIGLINAMLTDSGAEVRMSVPVTAVEQVNGGVKIKTDDDEIITAGVVVMTVPLNTYKHIGFTPALSKGKQRFIKEGQLSKGAKLYVHVKQNLGRVFAFADEQQPLNWVQTHDYSDELGTILSITIARKETIDVNDRDAVTREVQKMFPGVEVLGTAAYDWTADPFSLGAWAAYGVGQLSRLKDLQAAEGRILFAGAETSNGWHANIDGAVESGLRAGREVKQLLS
